For part of these data: No signal at the amounts used counts as a negative. For part of these data: At least one result comes from cells or an extract, where the contact may be indirect.
Columns and labels:
[1] = system: Insulin receptor, overexpressed on Rat-1 fibroblasts (Rat-1/hIR) (Homo sapiens); assay: flow cytometry; conditions: 6 Nap-dU stated (n positions) [n positions 3,4,10,14,16,20,24 = modified dU]; increased FITC-insulin binding (positive cooperativity), 0.02-1 uM; agonist of Y1150/Y1151 phosphorylation (FIG. 2d); protein on the cell surface; single-stranded DNA; variant of IR-A62F
[2] = system: Insulin-like growth factor 1 receptor (IGF-1R); assay: filter binding; conditions: specificity control, purified recombinant protein, single-stranded DNA

Chains of the proteins cited; added tags and fusions are not shown. Chains listed by the source or under a name are the forms on record and can include a tag or linker.
Insulin receptor, overexpressed on Rat-1 fibroblasts (Rat-1/hIR) (Homo sapiens), one chain, as listed by the source, chain 2 of 2: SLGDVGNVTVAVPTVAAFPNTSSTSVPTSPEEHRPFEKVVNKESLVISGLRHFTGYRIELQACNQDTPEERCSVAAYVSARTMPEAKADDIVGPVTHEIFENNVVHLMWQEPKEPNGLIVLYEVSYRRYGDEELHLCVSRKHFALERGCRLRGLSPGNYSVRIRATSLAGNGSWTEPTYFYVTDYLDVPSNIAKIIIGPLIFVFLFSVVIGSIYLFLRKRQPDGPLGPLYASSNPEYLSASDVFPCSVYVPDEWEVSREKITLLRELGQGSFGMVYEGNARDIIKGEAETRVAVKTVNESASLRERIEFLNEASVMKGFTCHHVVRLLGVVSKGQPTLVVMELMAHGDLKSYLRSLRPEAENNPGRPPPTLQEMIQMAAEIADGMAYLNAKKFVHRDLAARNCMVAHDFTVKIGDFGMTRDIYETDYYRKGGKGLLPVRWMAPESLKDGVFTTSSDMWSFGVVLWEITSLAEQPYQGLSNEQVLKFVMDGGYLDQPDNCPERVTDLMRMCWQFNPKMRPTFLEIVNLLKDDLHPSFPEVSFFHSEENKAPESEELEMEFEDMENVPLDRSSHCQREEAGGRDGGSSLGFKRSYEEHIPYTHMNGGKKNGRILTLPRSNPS

Sequence | binding result [1] | binding result ([2]; 6 Nap-dU stated (n positions) [n positions 3,4,10,14,16,20,24 = modified dU], variant of IR-A62F) | binding result ([2]; 6 Nap-dU (n positions) [n positions 8,10,11,21,23,27 = modified dU], no IGF-1R phosphorylation either, variant of IR-A48F)
CATTACGCATGAGTCTAGATCCGTCAG [IR-A62] | binds | no binding | 
CGCCTGGTGTTAAGACAACCTCTAGGTCAGGCG [IR-A48] |  |  | no binding

Source: US20190032060
